Some of these results come from one statement about several compounds together.
Tests used:
Nilaparvata lugens [1] = assay: Pesticidal test against Nilaparvata lugens, test liquid sprayed on rice plants (Test Example 1); format: in vivo; details: 30 first-instar larvae released
Nilaparvata lugens [2] = assay: Pesticidal test against Nilaparvata lugens, rice plants stood in test liquid (Test Example 2); format: in vivo; details: cup with rice plants placed in 55 ml test liquid for 6 days, 30 first-instar larvae released
[3] = 500 ppm test liquid sprayed 20 ml/cup on rice plants

| Compound | number of parasitic pests on the 6th day after the treatment (Nilaparvata lugens [1]; [3]) | also measured |
| --- | --- | --- |
| C=C(Cl)CC(C#N)(C#N)Cc1ccc(SC(F)(F)F)cc1 [Compound 2, 2-(2-chloro-2-propenyl)-2-(4-(trifluoromethylthio)benzyl)malononitrile] | ≤ 3 | – |
| N#CC(C#N)(Cc1ccc(OC(F)(F)F)cc1)CC(F)(F)C(F)(F)F [Compound 5, 2-(2,2,3,3,3-pentafluoropropyl)-2-(4-(trifluoromethoxy)benzyl)malononitrile] | ≤ 3 | number of parasitic pests on the 6th day after the treatment (Nilaparvata lugens [2]; 45.5 ppm): ≤ 3 |
| N#CC(C#N)(CCC(F)(F)F)Cc1c(Cl)cc(C(F)(F)F)cc1Cl [Compound 7, 2-(2,6-dichloro-4-(trifluoromethyl)benzyl)-2-(3,3,3-trifluoropropyl)malononitrile] | ≤ 3 | – |
| N#CC(C#N)(CCC(F)(F)F)Cc1ccccc1 [Compound 12, 2-benzyl-2-(3,3,3-trifluoropropyl)malononitrile] | ≤ 3 | number of parasitic pests on the 6th day after the treatment (Nilaparvata lugens [2]; 45.5 ppm): ≤ 3 |
| N#CC(C#N)(CCC(F)(F)F)Cc1c(F)cc(F)cc1F [Compound 17, 2-(2,4,6-trifluorobenzyl)-2-(3,3,3-trifluoropropyl)malononitrile] | – | number of parasitic pests on the 6th day after the treatment (Nilaparvata lugens [1]; 200 ppm test liquid sprayed 20 ml/cup on rice plants): ≤ 3; number of parasitic pests on the 6th day after the treatment (Nilaparvata lugens [2]; 18.2 ppm): ≤ 3 |
| N#CC(C#N)(Cc1ccc(Cl)cc1)CC(F)(F)C(F)F [Compound 25, 2-(4-chlorobenzyl)-2-(2,2,3,3-tetrafluoropropyl)malononitrile] | ≤ 3 | – |
| N#CC(C#N)(CCC(F)(F)F)Cc1ccc(I)cc1 [Compound 26, 2-(4-iodobenzyl)-2-(3,3,3-trifluoropropyl)malononitrile] | ≤ 3 | number of parasitic pests on the 6th day after the treatment (Nilaparvata lugens [2]; 18.2 ppm): ≤ 3 |
| Cc1ccc(CC(C#N)(C#N)CCC(F)(F)F)cc1[N+](=O)[O-] [Compound 30, 2-(3-nitro-4-methylbenzyl)-2-(3,3,3-trifluoropropyl)malononitrile] | ≤ 3 | – |
| COc1cccc(CC(C#N)(C#N)CCC(F)(F)F)c1 [Compound 32, 2-(3-methoxybenzyl)-2-(3,3,3-trifluoropropyl)malononitrile] | ≤ 3 | – |
| CC(C)c1ccc(CC(C#N)(C#N)CCC(F)(F)F)cc1 [Compound 35, 2-(4-isopropylbenzyl)-2-(3,3,3-trifluoropropyl)malononitrile] | ≤ 3 | – |
| N#CC(C#N)(CCC(F)(F)F)Cc1ccc([N+](=O)[O-])cc1Cl [Compound 38, 2-(2-chloro-4nitrobenzyl)-2-(3,3,3-trifluoropropyl)malononitrile] | ≤ 3 | – |
| N#CC(C#N)(CCC(F)(F)F)Cc1ccc(C(Br)CBr)cc1 (stereo not drawn) [Compound 43, 2-(4-(1,2-dibromoethyl)benzyl)-2-(3,3,3-trifluoropropyl)malononitrile] | ≤ 3 | – |
| N#CC(C#N)(CC=C(Cl)Cl)Cc1ccc(C(F)(F)F)cc1 [Compound 55, 2-(3,3-dichloro-2-propenyl)-2-(4-(trifluoromethyl)benzyl)malononitrile] | ≤ 3 | – |
| N#CC(C#N)(CCC(F)(F)F)Cc1ccc(C=CBr)cc1 [Compound 58, 2-(4-(2-bromovinyl)benzyl)-2-(3,3,3-trifluoropropyl)malononitrile] | ≤ 3 | – |
| N#CC(C#N)(C/C=C\Cl)Cc1ccccc1 [Compound 61, 2-benzyl-2-((Z)-3-chloro-2-propenyl)malononitrile] | ≤ 3 | – |
| N#CC(C#N)(CCC(F)=C(F)F)Cc1c(Cl)cc(C(F)(F)F)cc1Cl [Compound 66, 2-(2,6-dichloro-4-(trifluoromethyl)benzyl)-2-(3,4,4-trifluoro-3-butenyl)malononitrile] | ≤ 3 | – |
| N#CC(C#N)(CCCC(F)(F)F)Cc1ccc(C(F)(F)F)cc1 [Compound 78, 2-(4,4,4-trifluorobutyl)-2-(4-(trifluoromethyl)benzyl)malononitrile] | ≤ 3 | – |

Reference: patent US7402691B2, “Malononitrile compounds and their use as pesticides” (Sumitomo Chemical Company, Limited, priority 2001, dated 2008)
